# The list shows a part of the results.
# Amino acid sequences for entries named in this document (tags omitted).
# UniProt Q0JBA9, entry or part of it: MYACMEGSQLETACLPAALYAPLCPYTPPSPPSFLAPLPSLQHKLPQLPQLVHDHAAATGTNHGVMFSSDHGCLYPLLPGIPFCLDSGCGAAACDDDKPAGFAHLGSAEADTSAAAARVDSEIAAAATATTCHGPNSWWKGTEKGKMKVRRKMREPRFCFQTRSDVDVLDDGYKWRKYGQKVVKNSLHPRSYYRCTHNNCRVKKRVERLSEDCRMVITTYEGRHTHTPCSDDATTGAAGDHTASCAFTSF
# Biological target: OsWRKY34 (Oryza sativa, UniProt Q0JBA9 1-250)
# Assay: protein-binding microarray (RPBM); PBS, 2% BSA, 51.3 ng/ul salmon testes DNA, 50 uM zinc acetate, 200 nM TF, 25 C, 1 h; high values mean tight binding
# Details: protein: recombinant; tags: N-terminal polyhistidine and DsRed monomer fusion (pET32a); label: CyDye5-dUTP incorporated in the synthesized complementary strand; 3' TTTTT single-stranded linker to array surface; dsDNA, one strand shown
# Method in brief: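 Transcription factors were each fused at the N-terminus to a polyhistidine tag plus DsRed and expressed in E. coli BL21-CodonPlus before Ni–NTA purification. Binding to a double-stranded custom Agilent array was carried out with 200 nM protein at 25 °C for 1 h in PBS, 2% BSA, salmon testes DNA and 50 µM zinc acetate. The binding signal is per-feature fluorescence intensity, in arbitrary units, on an Axon 4000B scanner.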
row,Sequence,binding signal
1,CTTCCGCCGCGCGCTTCCTTGCCACCGCATCTAGGCCGGCCGGAGTCACCTAGTGCAG,11400 fluorescence intensity (a.u.)
2,TCGACTCACTCAATCCAGTCGTCACCCCAGCTCACACGCACGGAGTCACCTAGTGCAG,8250 fluorescence intensity (a.u.)
3,GTCCCTAACTCAACGTTATCCTGGTACGGCTACAGAGCGACGGAGTCACCTAGTGCAG,8390 fluorescence intensity (a.u.)
4,TCCTCCGCCGCCTCATGCCTCGCGCGCGCGCTCCCGCTCCCGGAGTCACCTAGTGCAG,9840 fluorescence intensity (a.u.)
5,ACCCGAGCCCTGACTGCAATTTACTCCGACGTGACCACTGCGGAGTCACCTAGTGCAG,8220 fluorescence intensity (a.u.)
6,GCTTCTTCCCTGTCCCCGGCGGCCGCCCGCGCCGCTTCTTCGGAGTCACCTAGTGCAG,8720 fluorescence intensity (a.u.)
7,CATTCTGTTCGAACAAGATTCCGTCCTATAGCATTTTTCTCGGAGTCACCTAGTGCAG,10500 fluorescence intensity (a.u.)
8,GCGTCGACCTCCGCCTCCGCGACCGGCCGTCACCTCGTCCCGGAGTCACCTAGTGCAG,9000 fluorescence intensity (a.u.)
9,ATTGCGCGCGAACAACATGATCCCCTAACCTTTGACCGTCCGGAGTCACCTAGTGCAG,8430 fluorescence intensity (a.u.)
10,ACCCATTTAATTTTTTTCCTTTTTTCTTTTTTCTTTCTCTCGGAGTCACCTAGTGCAG,9300 fluorescence intensity (a.u.)
11,AACGCTTCTCTCTCTCTCTCGGTTAATTGCCTGTCTGCGTCGGAGTCACCTAGTGCAG,12900 fluorescence intensity (a.u.)
12,GTTCAGTCACTCGCACGCTCGCTCGATCACCCGGCCGCCGCGGAGTCACCTAGTGCAG,10200 fluorescence intensity (a.u.)
13,CTTCCTAACGTTCATATCTCTGTGTTTTTAGTGTGTCATACGGAGTCACCTAGTGCAG,9860 fluorescence intensity (a.u.)
14,GGTTGCGATGCCGGCCGGGATGGATGGAGGTCGGGGATGACGGAGTCACCTAGTGCAG,9600 fluorescence intensity (a.u.)
15,ACGGTCGTGCTGCCCTCGAGTCAATTTCCATACACACGGCCGGAGTCACCTAGTGCAG,11500 fluorescence intensity (a.u.)
16,TACCATTTGTCGTCCAGCCGAACCCTGCTAGTATGGACCTCGGAGTCACCTAGTGCAG,8750 fluorescence intensity (a.u.)
17,CCCTCGCCACGGCCGTTCTTGTAGCCATCTTCTTCTTGCTCGGAGTCACCTAGTGCAG,10200 fluorescence intensity (a.u.)
18,CCCCAATCCATCCCGTCTCCTCGCCCGGCGCCCTCGACTCCGGAGTCACCTAGTGCAG,8100 fluorescence intensity (a.u.)
19,CTTTGTACAATTCTGAAATTTTCCTTTGCCTTCATATGCGCGGAGTCACCTAGTGCAG,9310 fluorescence intensity (a.u.)
20,ATATACTCTAGTCTCTACCTGCTCTTTCCCAATCACACTCCGGAGTCACCTAGTGCAG,10600 fluorescence intensity (a.u.)
21,CCACAAAATCATCTCCCATTTGCAGTCCCATCTGCTTTCTCGGAGTCACCTAGTGCAG,10700 fluorescence intensity (a.u.)

# Reformatted with tabs: entries from further up
row	Sequence	binding signal
10	ACCCATTTAATTTTTTTCCTTTTTTCTTTTTTCTTTCTCTCGGAGTCACCTAGTGCAG	9300 fluorescence intensity (a.u.)
12	GTTCAGTCACTCGCACGCTCGCTCGATCACCCGGCCGCCGCGGAGTCACCTAGTGCAG	10200 fluorescence intensity (a.u.)

# Following part.

row,Sequence,binding signal
1,TATCCCGTACGCGCGCTCGATCATCAGCTTGCATAGTCACCGGAGTCACCTAGTGCAG,9660 fluorescence intensity (a.u.)
2,AATTTCTTGTACTGTGTGAGCCATAGTAGTATAGCTTGATCGGAGTCACCTAGTGCAG,8370 fluorescence intensity (a.u.)
3,TCGACCCTATCGTTTTATCCGCATCTTAGCGCTCTCTCTCCGGAGTCACCTAGTGCAG,9800 fluorescence intensity (a.u.)
4,CCGCTGGCCCTTGTTGACACCTTGACTACGAAATGTATTCCGGAGTCACCTAGTGCAG,8980 fluorescence intensity (a.u.)
5,TTGCTTCTCTCCAGACTCTCTAGACTCCTCTGTTTGACGTCGGAGTCACCTAGTGCAG,8920 fluorescence intensity (a.u.)
6,CCGTTGTGTTGGTCGTACCCTGCTTTGCATCTGCACACGTCGGAGTCACCTAGTGCAG,12100 fluorescence intensity (a.u.)
7,TCTTTCTTGTCACAATATCTCCCTCTCATCCTTAGGTTTGCGGAGTCACCTAGTGCAG,8040 fluorescence intensity (a.u.)
8,GCCGAAATTGACATGTGACGCCCATAGTAAAGCCCACACGCGGAGTCACCTAGTGCAG,8980 fluorescence intensity (a.u.)
9,CCCTCACCCTATGTTCCTGTGTTTTGTACTCTTTCGTAACCGGAGTCACCTAGTGCAG,16300 fluorescence intensity (a.u.)
10,CGTCCGTACGTCTGCGTCTGCAGCCTTCCGTTTCGTTTTCCGGAGTCACCTAGTGCAG,13100 fluorescence intensity (a.u.)
11,TCCACCATTACACCACTTAACTCCTCTCCCTACACCACCACGGAGTCACCTAGTGCAG,8240 fluorescence intensity (a.u.)
12,TCCGAGTTTTTTTTTTCGTTTTCCCTCTGAATTCCGCGGCCGGAGTCACCTAGTGCAG,8860 fluorescence intensity (a.u.)
13,TATCTTATCAGGTCTCGTCTTCTTTAATCCAACCCTTGTTCGGAGTCACCTAGTGCAG,8680 fluorescence intensity (a.u.)
14,CCGCCGCCGCCGCCGCCGCTAGCTCTCTCTTCTCTTCGCTCGGAGTCACCTAGTGCAG,9710 fluorescence intensity (a.u.)
15,TCTTCCACCATTCAACAGCATTCGTCTTCTCATGCTTGTACGGAGTCACCTAGTGCAG,11000 fluorescence intensity (a.u.)
16,TATGTGTGACTATTTTTTTAATTTTTTCATAAATTTTTAGCGGAGTCACCTAGTGCAG,8440 fluorescence intensity (a.u.)
17,CCTCCGCCGCCGCCTCCGCGCCTCGCCTCGTCTCCTCCTCCGGAGTCACCTAGTGCAG,8140 fluorescence intensity (a.u.)
18,CTCCTCCTTGCCCTGGATCCGTTGTCTACCGACCCAAGAGCGGAGTCACCTAGTGCAG,9230 fluorescence intensity (a.u.)
19,CAGCCCAGCAAAAAGTCTACCTCTCCTGCCCACGCTACTGCGGAGTCACCTAGTGCAG,8140 fluorescence intensity (a.u.)
20,AGCAAAAACACATTTCCAACATTCGGTCTTCACTACTAGCCGGAGTCACCTAGTGCAG,8380 fluorescence intensity (a.u.)
21,CTGAGGCCTCCCTCTGAGTGCATATCGTAGGCAGCTTCCCCGGAGTCACCTAGTGCAG,8240 fluorescence intensity (a.u.)

# From paper PMC7819943, “Rice protein-binding microarrays: a tool to detect cis-acting elements near promoter regions in rice”
